According to publication PMC9412818:
Results are given in words; binding and its absence hold for the method and conditions named. Binding seen in cells or lysates may run through a third protein. Some results given as binding are weak or reduced against the parent protein; the word gives no strength. Tags and fused reporters may be left off the sequences shown.

Sequences of proteins named here, by UniProt entry; tags and fusion partners are left off.
UniProt Q6U7I1: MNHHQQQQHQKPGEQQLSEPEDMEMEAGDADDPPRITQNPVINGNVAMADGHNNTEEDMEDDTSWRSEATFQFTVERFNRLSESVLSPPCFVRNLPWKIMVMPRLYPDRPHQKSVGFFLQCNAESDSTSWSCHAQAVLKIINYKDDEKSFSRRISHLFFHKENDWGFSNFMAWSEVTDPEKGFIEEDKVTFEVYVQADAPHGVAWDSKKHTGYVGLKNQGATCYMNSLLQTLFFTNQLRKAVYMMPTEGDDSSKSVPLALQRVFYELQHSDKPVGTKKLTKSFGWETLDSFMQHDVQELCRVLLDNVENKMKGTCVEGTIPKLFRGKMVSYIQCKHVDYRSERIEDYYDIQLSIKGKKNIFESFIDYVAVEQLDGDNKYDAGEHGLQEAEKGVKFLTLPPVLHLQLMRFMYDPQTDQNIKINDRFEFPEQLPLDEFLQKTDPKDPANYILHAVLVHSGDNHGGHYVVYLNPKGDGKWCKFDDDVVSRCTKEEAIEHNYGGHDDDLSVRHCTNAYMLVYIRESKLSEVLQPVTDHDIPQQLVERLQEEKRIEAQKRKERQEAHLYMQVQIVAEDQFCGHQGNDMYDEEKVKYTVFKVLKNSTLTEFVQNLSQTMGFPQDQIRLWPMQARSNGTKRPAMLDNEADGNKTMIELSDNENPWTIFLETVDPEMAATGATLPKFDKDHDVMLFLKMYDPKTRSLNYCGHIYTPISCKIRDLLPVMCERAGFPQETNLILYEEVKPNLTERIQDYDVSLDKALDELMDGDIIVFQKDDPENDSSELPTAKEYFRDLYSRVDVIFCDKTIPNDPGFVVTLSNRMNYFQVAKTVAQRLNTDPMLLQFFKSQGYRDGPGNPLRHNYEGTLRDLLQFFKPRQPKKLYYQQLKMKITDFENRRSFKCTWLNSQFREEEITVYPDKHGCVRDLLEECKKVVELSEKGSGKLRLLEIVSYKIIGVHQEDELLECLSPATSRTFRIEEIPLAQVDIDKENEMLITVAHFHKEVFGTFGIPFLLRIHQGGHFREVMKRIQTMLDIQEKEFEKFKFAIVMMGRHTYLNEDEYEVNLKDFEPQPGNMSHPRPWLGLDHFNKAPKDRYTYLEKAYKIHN

Biological target: T1, chicken MyD88 (chMyD88), 3xFLAG-tagged (chicken) (UniProt A5HNF6)
T1 sequence: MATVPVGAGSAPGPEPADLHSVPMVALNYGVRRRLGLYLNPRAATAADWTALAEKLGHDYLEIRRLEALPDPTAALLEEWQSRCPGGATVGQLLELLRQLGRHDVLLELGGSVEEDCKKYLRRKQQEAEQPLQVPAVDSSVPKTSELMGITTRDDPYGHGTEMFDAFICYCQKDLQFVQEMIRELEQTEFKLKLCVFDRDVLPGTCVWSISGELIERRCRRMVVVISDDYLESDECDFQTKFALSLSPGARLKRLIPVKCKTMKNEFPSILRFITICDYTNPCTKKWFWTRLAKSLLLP
Assay: co-IP; DF1 cells co-transfected, lysed 24 h later in RIPA buffer (50 mM Tris-HCl pH 7.4, 150 mM NaCl, 0.25% deoxycholic acid, 1 mM EDTA, 1% NP-40, 0.5% SDS); precipitated with anti-FLAG beads overnight at 4°C; immunoblot

binding: binds
Substance: chicken USP7 (chUSP7), MYC-tagged (from UniProt Q6U7I1 1-1101) (enzyme)
